Measurements taken from publication PMC8095096.

Target: EtCDPK3 (Eimeria tenella)
Assay: two-hybrid; yeast two-hybrid screen for proteins interacting with EtCDPK3; no details given

B1: EtCHP18905 protein (conserved hypothetical protein of Eimeria tenella) (protein, UniProt U6KXM2 1-350)
chain: MDRDRRSVYAETDFRSYTGSGNNYFLLDGQDEEENPQMPELRLSRREFRMRHRKSTAGSRGLNKSVSEPTMRAWIAGFLLLSLALSISVASLNRSEEKQQKQQQNTLPAHEPDVRVPSSPSYSASAAYGAGGDAELKQEKLPMTRNLHRTFLSLSLTEDNGLLRTLQGPEWGPAKEALLRSVDLVLECQPDEFEDTDSKVETMRLMLAMDLACLENAAVETKLAVDNARASQSDNHSEDIAAKIKANIDARRKQSRAAELWEVEVLKGKLGSDPELKAALVKLLLAVRSRAASSEYLSATVGTVMLQSDPSPHSKAEENRAYEETTQTIETASCRSFSVNCKESQAGNGW
binding: binds

No constants are given. Whether binding was seen depends on the method and setting. Binding calls can cover weak binding; strength is not graded here.
